The results in this text go back to paper PMC2225407.

The chains behind the UniProt entries cited, without tags or fusion partners. Where a name states a change or a piece, a line headed by the entry shows the natural chain unless it says otherwise.
UniProt G5EDJ0: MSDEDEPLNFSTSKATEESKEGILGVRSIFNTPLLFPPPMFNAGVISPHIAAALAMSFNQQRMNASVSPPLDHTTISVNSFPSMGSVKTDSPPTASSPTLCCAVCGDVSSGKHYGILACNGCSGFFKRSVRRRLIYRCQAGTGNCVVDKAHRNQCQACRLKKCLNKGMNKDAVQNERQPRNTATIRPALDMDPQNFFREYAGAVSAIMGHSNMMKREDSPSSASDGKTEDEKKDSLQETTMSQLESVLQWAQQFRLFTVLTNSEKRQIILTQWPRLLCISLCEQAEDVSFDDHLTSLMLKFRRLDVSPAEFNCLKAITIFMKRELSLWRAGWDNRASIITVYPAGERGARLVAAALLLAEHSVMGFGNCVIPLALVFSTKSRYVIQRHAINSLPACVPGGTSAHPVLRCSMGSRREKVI

The exact form of at least one protein or probe is not confirmed. Negatives hold for the conditions tested. Weaker means in comparison with the reference protein, sequence or condition of that experiment.

This series concerns the target MBP::FAX-1 (Caenorhabditis elegans) (UniProt G5EDJ0). As to the kind of experiment: competition with a labelled probe. The following applies: EMSA: 1.5 ug MBP::FAX-1, 4 ng 32P ds oligo, BSA, 30 min pre-incubation + 30 min on ice, 8% native PAGE, binding buffer salt and pH not given, recombinant protein, protein details: MBP (N-terminal fusion implied by name), label: 32P (fill-in) as probe, unlabeled as competitor.

The mark [1] stands for this setting: 10x and 100x unlabeled vs labeled DR1A.
Setting [2] is: 10x and 100x unlabeled vs labeled HRSW.

Consider “AATTACCCTTTTAAAAGTCAAAAGTCAACTTCCAA / TCGATTGGAAGTTGACTTTTGACTTTTAAAAGGGT [DR1A]”, for which the binding result under setting [1] is given as “binds” and the binding result (unlabeled vs labeled DR1C, more effective than DR1C) is given as “binds”.

On to “AATTACCCTTTTAAAAGTCAAAATTCAACTTCCAA / TCGATTGGAAGTTGAATTTTGACTTTTAAAAGGGT [HRSW]”, for which the binding result under setting [2] is on record as “binds”.

Turning to “AATTACCCTTTTAAAATTCAAAATTCAACTTCCAA / TCGATTGGAAGTTGAATTTTGAATTTTAAAAGGGT [DRNC]”, the binding result reads like this: under setting [1], “no binding”; under setting [2], “no binding”.

For “AATTACCCTTTTAAACGTCAAACGTCAACTTCCAA / TCGATTGGAAGTTGACGTTTGACGTTTAAAAGGGT [DR1C]”, the binding result (unlabeled vs labeled DR1C, less effective than DR1A) is “binds more weakly”.

For “AATTACCCTTTTAAAGGTCAAAGGTCAACTTCCAA / TCGATTGGAAGTTGACCTTTGACCTTTAAAAGGGT [DR1G]”, the binding result (10x and 100x unlabeled vs labeled DR1A, similar to DR1A) is given as “binds”.
